B1: SLC25A4 (protein, UniProt P12235 2-298, looked up)
ADP/ATP translocase 1: GDHAWSFLKDFLAGGVAAAVSKTAVAPIERVKLLLQVQHASKQISAEKQYKGIIDCVVRIPKEQGFLSFWRGNLANVIRYFPTQALNFAFKDKYKQLFLGGVDRHKQFWRYFAGNLASGGAAGATSLCFVYPLDFARTRLAADVGKGAAQREFHGLGDCIIKIFKSDGLRGLYQGFNVSVQGIIIYRAAYFGVYDTAKGMLPDPKNVHIFVSWMIAQSVTAVAGLVSYPFDTVRRRMMMQSGRKGADIMYTGTVDCWRKIAKDEGAKAFFKGAWSNVLRGMGGAFVLVLYDEIKKYV
B2: C6orf11 (protein, UniProt O15213 1-610, looked up)
WD repeat-containing protein …: METAPKPGKDVPPKKDKLQTKRKKPRRYWEEETVPTTAGASPGPPRNKKNRELRPQRPKNAYILKKSRISKKPQVPKKPREWKNPESQRGLSGTQDPFPGPAPVPVEVVQKFCRIDKSRKLPHSKAKTRSRLEVAEAEEEETSIKAARSELLLAEEPGFLEGEDGEDTAKICQADIVEAVDIASAAKHFDLNLRQFGPYRLNYSRTGRHLAFGGRRGHVAALDWVTKKLMCEINVMEAVRDIRFLHSEALLAVAQNRWLHIYDNQGIELHCIRRCDRVTRLEFLPFHFLLATASETGFLTYLDVSVGKIVAALNARAGRLDVMSQNPYNAVIHLGHSNGTVSLWSPAMKEPLAKILCHRGGVRAVAVDSTGTYMATSGLDHQLKIFDLRGTYQPLSTRTLPHGAGHLAFSQRGLLVAGMGDVVNIWAGQGKASPPSLEQPYLTHRLSGPVHGLQFCPFEDVLGVGHTGGITSMLVPGAGEPNFDGLESNPYRSRKQRQEWEVKALLEKVPAELICLDPRALAEVDVISLEQGKKEQIERLGYDPQAKAPFQPKPKQKGRSSTASLVKRKRKVMDEEHRDKVRQSLQQQHHKEAKAKPTGARPSALDRFVR
B3: PRDM10 (protein, UniProt Q9NQV6 1-1147, looked up)
PR domain zinc finger protein …: MDSKDESSHVWPTSAEHEQNAAQVHFVPDTGTVAQIVYTDDQVRPPQQVVYTADGASYTSVDGPEHTLVYIHPVEAAQTLFTDPGQVAYVQQDATAQQASLPVHNQVLPSIESVDGSDPLATLQTPLGRLEAKEEEDEDEDEDTEEDEEEDGEDTDLDDWEPDPPRPFDPHDLWCEECNNAHASVCPKHGPLHPIPNRPVLTRARASLPLVLYIDRFLGGVFSKRRIPKRTQFGPVEGPLVRGSELKDCYIHLKVSLDKGDRKERDLHEDLWFELSDETLCNWMMFVRPAQNHLEQNLVAYQYGHHVYYTTIKNVEPKQELKVWYAASYAEFVNQKIHDISEEERKVLREQEKNWPCYECNRRFISSEQLQQHLNSHDEKLDVFSRTRGRGRGRGKRRFGPGRRPGRPPKFIRLEITSENGEKSDDGTQDLLHFPTKEQFDEAEPATLNGLDQPEQTTIPIPQLPQETQSSLEHEPETHTLHLQPQHEESVVPTQSTLTADDMRRAKRIRLELQNAALQHLFIRKSFRPFKCLQCGKAFREKDKLDQHLRFHGREGNCPLTCDLCNKGFISSTSLESHMKLHSDQKTYSCIFCPESFDRLDLLKDHVAIHINDGYFTCPTCKKRFPDFIQVKKHVRSFHSEKIYQCTECDKAFCRPDKLRLHMLRHSDRKDFLCSTCGKQFKRKDKLREHMQRMHNPEREAKKADRISRSKTFKPRITSTDYDSFTFKCRLCMMGFRRRGMLVNHLSKRHPDMKIEEVPELTLPIIKPNRDYFCQYCDKVYKSASKRKAHILKNHPGAELPPSIRKLRPAGPGEPDPMLSTHTQLTGTIATPPVCCPHCSKQYSSKTKMVQHIRKKHPEFAQLSNTIHTPLTTAVISATPAVLTTDSATGETVVTTDLLTQAMTELSQTLTTDYRTPQGDYQRIQYIPVSQSASGLQQPQHIQLQVVQVASATSPHQSQQSTVDVGQLHDPQPYPQHAIQVQHIQVSGQPLSPSAQQAQQGLSPSHIQGSSSTQGQALQQQQQQQQNSSVQHTYLPSAWNSFRGYSSEIQMMTLPPGQFVITDSGVATPVTTGQVKAVTSGHYVLSESQSELEEKQTSALSGGVQVEPPAHSDSLDPQTNSQQQTTQYIITTTTNGNGSSEVHITKP
B4: CDK2AP1 (protein, UniProt O14519 1-115, looked up)
Cyclin-dependent kinase …: MSYKPNLAAHMPAAALNAAGSVHSPSTSMATSSQYRQLLSDYGPPSLGYTQGTGNSQVPQSKYAELLAIIEELGKEIRPTYAGSKSAMERLKRGIIHARGLVRECLAETERNARS
B5: SAP30BP (protein)
chain: MAGKKNVLSSLAVYAEDSEPESDGEAGIEAVGSAAEEKGGLVSDAYGEDDFSRLGGDEDGYEEEEDENSRQSEDDDSETEKPEADDPKDNTEAEKRDPQELVASFSERVRNMSPDEIKIPPEPPGRCSNHLQDKIQKLYERKIKEGMDMNYIIQRKKEFRNPSIYEKLIQFCAIDELGTNYPKDMFDPHGWSEDSYYEALAKAQKIEMDKLEKAKKERTKIEFVTGTKKGTTTNATSTTTTTASTAVADAQKRKSKWDSAIPVTTIAQPTILTTTATLPAVVTVTTSASGSKTTVISAVGTIVKKAKQ
B6: GSG2 (protein, UniProt Q8TF76 1-798, looked up)
Serine/threonine-protein …: MAASLPGPGSRLFRTYGAADGRRQRRPGREAAQWFPPQDRRRFFNSSGSSDASIGDPSQSDDPDDPDDPDFPGSPVRRRRRRPGGRVPKDRPSLTVTPKRWKLRARPSLTVTPRRLGLRARPPQKCSTPCGPLRLPPFPSRDSGRLSPDLSVCGQPRDGDELGISASLFSSLASPCPGSPTPRDSVISIGTSACLVAASAVPSGLHLPEVSLDRASLPCSQEEATGGAKDTRMVHQTRASLRSVLFGLMNSGTPEDSEFRADGKNMRESCCKRKLVVGNGPEGPGLSSTGKRRATGQDSCQERGLQEAVRREHQEASVPKGRIVPRGIDRLERTRSSRKSKHQEATETSLLHSHRFKKGQKLGKDSFPTQDLTPLQNVCFWTKTRASFSFHKKKIVTDVSEVCSIYTTATSLSGSLLSECSNRPVMNRTSGAPSSWHSSSMYLLSPLNTLSISNKKASDAEKVYGECSQKGPVPFSHCLPTEKLQRCEKIGEGVFGEVFQTIADHTPVAIKIIAIEGPDLVNGSHQKTFEEILPEIIISKELSLLSGEVCNRTEGFIGLNSVHCVQGSYPPLLLKAWDHYNSTKGSANDRPDFFKDDQLFIVLEFEFGGIDLEQMRTKLSSLATAKSILHQLTASLAVAEASLRFEHRDLHWGNVLLKKTSLKKLHYTLNGKSSTIPSCGLQVSIIDYTLSRLERDGIVVFCDVSMDEDLFTGDGDYQFDIYRLMKKENNNRWGEYHPYSNVLWLHYLTDKMLKQMTFKTKCNTPAMKQIKRKIQEFHRTMLNFSSATDLLCQHSLFK
B7: HNRNPA3 (protein, UniProt P51991 1-378, looked up)
Heterogeneous nuclear …: MEVKPPPGRPQPDSGRRRRRRGEEGHDPKEPEQLRKLFIGGLSFETTDDSLREHFEKWGTLTDCVVMRDPQTKRSRGFGFVTYSCVEEVDAAMCARPHKVDGRVVEPKRAVSREDSVKPGAHLTVKKIFVGGIKEDTEEYNLRDYFEKYGKIETIEVMEDRQSGKKRGFAFVTFDDHDTVDKIVVQKYHTINGHNCEVKKALSKQEMQSAGSQRGRGGGSGNFMGRGGNFGGGGGNFGRGGNFGGRGGYGGGGGGSRGSYGGGDGGYNGFGGDGGNYGGGPGYSSRGGYGGGGPGYGNQGGGYGGGGGYDGYNEGGNFGGGNYGGGGNYNDFGNYSGQQQSNYGPMKGGSFGGRSSGSPYGGGYGSGGGSGGYGSRRF
B8: CWC15 (protein, UniProt Q9P013 2-229, looked up)
Spliceosome-associated …: TTAARPTFEPARGGRGKGEGDLSQLSKQYSSRDLPSHTKIKYRQTTQDAPEEVRNRDFRRELEERERAAAREKNRDRPTREHTTSSSVSKKPRLDQIPAANLDADDPLTDEEDEDFEEESDDDDTAALLAELEKIKKERAEEQARKEQEQKAEEERIRMENILSGNPLLNLTGPSQPQANFKVKRRWDDDVVFKNCAKGVDDQKKDKRFVNDTLRSEFHKKFMEKYIK
B9: BCAS2 (protein, UniProt O75934 2-225, looked up)
Pre-mRNA-splicing factor SPF27: AGTGLVAGEVVVDALPYFDQGYEAPGVREAAAALVEEETRRYRPTKNYLSYLTAPDYSAFETDIMRNEFERLAARQPIELLSMKRYELPAPSSGQKNDITAWQECVNNSMAQLEHQAVRIENLELMSQHGCNAWKVYNENLVHMIEHAQKELQKLRKHIQDLNWQRKNMQLTAGSKLREMESNWVSLVSKNYEIERTIVQLENEIYQIKQQHGEANKENIRQDF
B10: DNAJC11 (protein, UniProt Q9NVH1 2-559, looked up)
DnaJ homolog subfamily C …: ATALSEEELDNEDYYSLLNVRREASSEELKAAYRRLCMLYHPDKHRDPELKSQAERLFNLVHQAYEVLSDPQTRAIYDIYGKRGLEMEGWEVVERRRTPAEIREEFERLQREREERRLQQRTNPKGTISVGVDATDLFDRYDEEYEDVSGSSFPQIEINKMHISQSIEAPLTATDTAILSGSLSTQNGNGGGSINFALRRVTSAKGWGELEFGAGDLQGPLFGLKLFRNLTPRCFVTTNCALQFSSRGIRPGLTTVLARNLDKNTVGYLQWRWGIQSAMNTSIVRDTKTSHFTVALQLGIPHSFALISYQHKFQDDDQTRVKGSLKAGFFGTVVEYGAERKISRHSVLGAAVSVGVPQGVSLKVKLNRASQTYFFPIHLTDQLLPSAMFYATVGPLVVYFAMHRLIIKPYLRAQKEKELEKQRESAATDVLQKKQEAESAVRLMQESVRRIIEAEESRMGLIIVNAWYGKFVNDKSRKSEKVKVIDVTVPLQCLVKDSKLILTEASKAGLPGFYDPCVGEEKNLKVLYQFRGVLHQVMVLDSEALRIPKQSHRIDTDG

Tested on: BAF complex subunits and histone proteins
Assay: Mass spectrometry proteomics of purified HA-SS18 WT and HA-SS18-SSX1 complexes (Tables 5A-5E)
Parameters: species or system human
Conditions: HA-SS18SSX1_CHR_peptides; total peptides of the identified protein

Question: How did the Total turn out when B1 was run?
Answer: 1

Question: For B2, which Total is on record?
Answer: 1

Question: For B3, which Total is on record?
Answer: 1

Question: How did the Total turn out when B4 was run?
Answer: 1

Question: Which Total does the source give for B5 here?
Answer: 1

Question: With B6 as the molecule, how does the Total read?
Answer: 1

Question: B7 was tested. Which Total did it give?
Answer: 1

Question: How did the Total turn out when B8 was run?
Answer: 1

Question: How did the Total turn out when B9 was run?
Answer: 1

Question: With B10 as the molecule, how does the Total read?
Answer: 1

Same assay, conditions: HA-SS18SSX1_CHR_peptides; unique peptides of the identified protein

Question: B1 was tested. Which Unique did it give?
Answer: 1

Question: With B2 as the molecule, how does the Unique read?
Answer: 1

Question: For B3, which Unique is on record?
Answer: 1

Question: For B4, which Unique is on record?
Answer: 1

Question: With B5 as the molecule, how does the Unique read?
Answer: 1

Question: B6 was tested. Which Unique did it give?
Answer: 1

Question: How did the Unique turn out when B7 was run?
Answer: 1

Question: B8 was tested. Which Unique did it give?
Answer: 1

Question: Which Unique does the source give for B9 here?
Answer: 1

Question: How did the Unique turn out when B10 was run?
Answer: 1

Same assay, conditions: HA-SS18SSX1_NE_peptides: protein co-purified with HA-SS18-SSX1 BAF complexes from soluble nuclear extract (NE), HEK-293T cells

Question: With B1 as the molecule, how does the “Total (peptides)” value read?
Answer: 2

Question: And the “Unique (peptides)” value?
Answer: 2

Question: How did the “Total (peptides)” value turn out when B10 was run?
Answer: 2

Question: And the “Unique (peptides)” value?
Answer: 2

Same assay, conditions: HA-SS18WT_CHR_peptides: protein identified in HA-SS18 WT BAF complex purification from nuclease-treated solubilized chromatin (CHR), HEK-293T

Question: What does the source list for B2?
Answer: Total (total peptides): 1; Unique (unique peptides): 1

Question: With B6 as the molecule, how does the “Total (total peptides)” value read?
Answer: 1

Question: What about the “Unique (unique peptides)” value of the same molecule?
Answer: 1

Question: Which “Total (total peptides)” value does the source give for B9 here?
Answer: 1

Question: What about the “Unique (unique peptides)” value of the same molecule?
Answer: 1

Same assay, conditions: HA-SS18WT_NE_peptides: HA-SS18 WT complexes purified from nuclear extract (NE), HEK-293T; label = protein identified (Gene Symbol)

Question: With B1 as the molecule, how does the “Total (peptides)” value read?
Answer: 3

Question: What about the “Unique (peptides)” value of the same molecule?
Answer: 3

Question: Which “Total (peptides)” value does the source give for B10 here?
Answer: 2

Question: What about the “Unique (peptides)” value of the same molecule?
Answer: 2

From patent US20250283871A1, “COMPOSITIONS AND METHODS FOR MODULATING THE INTERACTION BETWEEN SS18-SSX FUSION ONCOPROTEIN AND NUCLEOSOMES” (Dana-Farber Cancer Institute, Inc., priority 2020, published 2025)
